These results are taken from patent US20180148506A1.

The chains behind the UniProt entries cited, without tags or fusion partners. Residues count along the entry.
UniProt P09564, residues 26-240: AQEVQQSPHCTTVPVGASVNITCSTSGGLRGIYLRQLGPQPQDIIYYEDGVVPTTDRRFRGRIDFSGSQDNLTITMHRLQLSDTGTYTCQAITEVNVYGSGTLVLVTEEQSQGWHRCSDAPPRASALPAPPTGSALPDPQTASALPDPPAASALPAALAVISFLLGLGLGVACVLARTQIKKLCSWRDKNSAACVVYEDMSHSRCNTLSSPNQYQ

Results are given in words; binding and its absence hold for the method and conditions named. Some binding calls cover weakened binding; strength is not graded here.

Assay [1] deals with CD7 (Cluster of Differentiation 7) (human) (UniProt P09564). The assay can be described thus: flow cytometry: supernatant of Jurkat cells transduced with anti-CD7 scFv on CD7+ MOLT-4 cells. On the technique in general: Flow cytometry measures light scatter and fluorescence of single cells or particles in a stream.
For assay [2] the target is unchanged. The assay can be described thus: flow cytometry: soluble scFv supernatant on CD7+ MOLT-4 cells, detected with biotin goat anti-mouse F(ab')2 and streptavidin-APC.

B1: soluble anti-CD7 scFv (single chain variable fragment of the anti-CD7 monoclonal antibody TH69) (scFv)
scFv: AAYKDIQMTQTTSSLSASLGDRVTISCSASQGISNYLNWYQQKPDGTVKLLIYYTSSLHSGVPSRFSGSGSGTDYSLTISNLEPEDIATYYCQQYSKLPYTFGGGTKLEIKRGGGGSGGGGSGGGGSGGGGSEVQLVESGGGLVKPGGSLKLSCAASGLTFSSYAMSWVRQTPEKRLEWVASISSGGFTYYPDSVKGRFTISRDNARNILYLQMSSLRSEDTAMYYCARDEVRGYLDVWGAGTTVTVSS
Regarding B1, the binding result in assay [1] and in assay [2] was “binds” each time.
